# Results reported in patent EP1621546B1 (Tecnogen S.p.A., priority 2004, dated 2008).
# Experiment: general procedure: Fmoc solid-phase peptide synthesis; polystyrene-1% divinylbenzene, 100-200 mesh, derivatized with p-benzyloxy-benzyl group (substitution 0.75 meq/g), Novabi; HOBt/HBTU
# Conditions: whole synthesis, calculated from the micromols of Fmoc splitted from the N-terminal cysteines, scale 100 µmol, one disulfide bridge, sequence written open
substance,measurement,value
(NH2-L-Cys-L-Tyr-L-His-L-His)2-L-Lys-L-Gly-OH,crude yield,93.5%
